{
  "source": "patent US20240201191A1",
  "about": "“CITRULLINATED PROTEINS AS BIOMARKERS AND THERAPY TARGETS FOR CANCER” (BOARD OF REGENTS, THE UNIVERSITY OF TEXAS SYSTEM, priority 2022, published 2024)",
  "system": "HCC1954 (HR-/Her2+) cells",
  "test": "Cell surface HLA-bound peptidyl-citrullinome by mass spectrometry, HCC1954",
  "assay_type": "cell-based, human",
  "conditions": "mild acid elution, LC-MS/MS, FDR=0.01; class by peptide length",
  "data": [
    {"substance": "YVTIIDAPGHR*DFIKNM (YVTIIDAPGHRDFIKNM; citrulline at R11; MOD_RES (11)..(11) Citrullinated Arginine) [SEQ ID NO: 37, EEF1A1 peptide, R11(Cit.)]", "values": [
      {"measurement": "Cell surface MHC binding citrullinated peptide identified in HCC1954 (HR−/Her2+)", "value": "MHC-II (from 12 to 34 as MHC-IU binding peptides)"}
    ]}
  ]
}
